# Reference: PubChem BioAssay AID2073 (Sanford-Burnham Center for Chemical Genomics, 2009)
# The chains behind the UniProt entries cited, without tags or fusion partners.
# UniProt Q00975, whole entry, looked up: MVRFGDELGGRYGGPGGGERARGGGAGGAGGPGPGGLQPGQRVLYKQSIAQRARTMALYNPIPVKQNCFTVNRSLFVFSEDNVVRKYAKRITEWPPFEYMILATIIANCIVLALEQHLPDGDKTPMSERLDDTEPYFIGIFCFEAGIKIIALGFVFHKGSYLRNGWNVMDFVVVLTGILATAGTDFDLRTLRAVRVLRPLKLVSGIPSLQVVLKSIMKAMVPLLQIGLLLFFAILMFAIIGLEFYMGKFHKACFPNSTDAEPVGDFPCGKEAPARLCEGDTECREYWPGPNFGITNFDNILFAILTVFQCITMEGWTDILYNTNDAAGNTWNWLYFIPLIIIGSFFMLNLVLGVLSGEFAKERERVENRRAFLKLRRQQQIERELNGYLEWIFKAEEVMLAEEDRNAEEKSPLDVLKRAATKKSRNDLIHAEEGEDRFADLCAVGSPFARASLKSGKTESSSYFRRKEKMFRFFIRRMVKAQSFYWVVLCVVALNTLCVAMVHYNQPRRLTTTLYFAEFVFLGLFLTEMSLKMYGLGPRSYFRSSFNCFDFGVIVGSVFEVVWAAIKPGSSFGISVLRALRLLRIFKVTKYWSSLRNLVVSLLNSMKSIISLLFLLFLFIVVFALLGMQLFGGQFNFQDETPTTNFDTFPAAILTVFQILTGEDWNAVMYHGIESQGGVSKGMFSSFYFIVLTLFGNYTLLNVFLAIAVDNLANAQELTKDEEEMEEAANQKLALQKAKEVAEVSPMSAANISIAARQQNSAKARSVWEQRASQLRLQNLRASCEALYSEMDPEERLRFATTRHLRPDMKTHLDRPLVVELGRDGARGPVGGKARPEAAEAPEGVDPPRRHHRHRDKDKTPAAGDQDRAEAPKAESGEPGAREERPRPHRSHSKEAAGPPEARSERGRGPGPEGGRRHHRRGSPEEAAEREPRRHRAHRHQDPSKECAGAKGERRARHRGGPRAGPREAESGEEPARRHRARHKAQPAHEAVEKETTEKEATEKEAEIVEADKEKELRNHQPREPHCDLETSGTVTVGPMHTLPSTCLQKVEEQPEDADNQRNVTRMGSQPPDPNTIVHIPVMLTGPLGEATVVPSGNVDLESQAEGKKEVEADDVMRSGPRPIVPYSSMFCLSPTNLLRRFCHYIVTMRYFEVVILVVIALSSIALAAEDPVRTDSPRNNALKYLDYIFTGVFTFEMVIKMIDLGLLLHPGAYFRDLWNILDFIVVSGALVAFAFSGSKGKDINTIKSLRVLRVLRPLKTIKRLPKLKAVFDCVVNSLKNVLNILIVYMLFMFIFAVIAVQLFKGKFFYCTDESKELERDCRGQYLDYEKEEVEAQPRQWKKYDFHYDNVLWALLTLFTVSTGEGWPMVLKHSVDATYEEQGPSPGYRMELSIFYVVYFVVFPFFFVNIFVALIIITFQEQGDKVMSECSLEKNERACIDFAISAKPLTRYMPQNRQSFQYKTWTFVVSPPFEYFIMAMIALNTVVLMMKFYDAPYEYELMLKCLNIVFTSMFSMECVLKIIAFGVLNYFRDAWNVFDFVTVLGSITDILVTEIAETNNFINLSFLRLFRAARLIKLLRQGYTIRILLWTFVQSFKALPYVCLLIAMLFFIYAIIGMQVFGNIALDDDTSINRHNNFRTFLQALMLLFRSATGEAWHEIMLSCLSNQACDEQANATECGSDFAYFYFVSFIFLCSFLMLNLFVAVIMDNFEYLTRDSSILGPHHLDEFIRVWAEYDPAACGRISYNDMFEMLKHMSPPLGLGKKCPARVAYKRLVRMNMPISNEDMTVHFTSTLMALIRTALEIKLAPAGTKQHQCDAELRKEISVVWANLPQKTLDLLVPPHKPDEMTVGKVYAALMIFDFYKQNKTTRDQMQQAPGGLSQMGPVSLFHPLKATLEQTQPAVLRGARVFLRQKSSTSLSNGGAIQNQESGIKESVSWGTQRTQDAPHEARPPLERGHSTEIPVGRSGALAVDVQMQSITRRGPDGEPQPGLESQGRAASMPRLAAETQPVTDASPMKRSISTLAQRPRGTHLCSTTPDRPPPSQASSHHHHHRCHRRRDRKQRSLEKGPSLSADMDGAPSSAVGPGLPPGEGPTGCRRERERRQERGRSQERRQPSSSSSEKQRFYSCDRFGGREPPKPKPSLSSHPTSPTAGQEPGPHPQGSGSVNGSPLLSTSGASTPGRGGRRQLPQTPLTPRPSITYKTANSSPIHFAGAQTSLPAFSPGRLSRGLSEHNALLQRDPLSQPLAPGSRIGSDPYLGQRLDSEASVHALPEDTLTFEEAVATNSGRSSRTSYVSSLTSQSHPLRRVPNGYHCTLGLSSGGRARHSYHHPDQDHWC
# About 570 (0.2%) of roughly 290,000 compounds were called active. Inconclusive means that the source gave no clear call. Such entries were picked first, then a sample of the others. Rule as the data show it: active = inhibition mostly above about 51% (no sharp cut-off); inconclusive = no clear call, values can overlap the other calls; inactive = mostly below about 53%.
# Target: Voltage-dependent N-type calcium channel subunit alpha-1B (Homo sapiens) (UniProt Q00975)
# Test: disruptors of CaV2.2 binding to Mint1 – biochemical, HTRF (AID 2073)
# Conditions: HTRF protein-protein interaction, Mint1-CaV2.2; at 20 µM; stronger effect = higher value
row,SMILES,inhibition
1,Cc1ccc(C)c(-c2cc(C(=O)NN3CCOCC3)c3ccccc3n2)c1,inconclusive: 57.1%
2,COc1ccc(-c2nc3cc(C)ccn3c2NCc2ccc3c(c2)OCO3)cc1,inconclusive: 72.6%
3,COc1ccc2[nH]c(C(=O)O)c(NS(=O)(=O)c3ccc(Cl)s3)c2c1,inconclusive: 53.2%
4,CC(C)c1nc(SCC(=O)Nc2c[nH]c(=O)[nH]c2=O)c2cnn(-c3ccccc3)c2n1,inconclusive: 91.2%
5,COc1ccc(CCC(=O)OCC(=O)c2ccc(C)cc2)cc1,inconclusive: 53.8%
6,COc1ccc(NC(=O)c2cc(C)nc3ccccc23)c(OC)c1,inconclusive: 55%
7,Cc1cc(OC(C)C(=O)NCc2cccnc2)c2c(C)cc(=O)oc2c1 (stereo not drawn),inconclusive: 54.2%
8,CCNC(=O)COC(=O)c1ccc(-n2nc(C)cc2C)cc1,inactive: 5.8%
9,O=C(Nc1ccc(F)cc1)OCCOc1ccc([N+](=O)[O-])cc1,inconclusive: 70.2%
10,CCCCc1ccc(-c2csc(/C(C#N)=C/c3ccco3)n2)cc1,inactive: 49.9%
11,O=C(Nc1cccc(Cl)c1)C1C2CCC3C(CCC21)C3(Cl)Cl (stereo not drawn),inconclusive: 69.8%
12,c1cn(CCCNC2=NCCCCC2)cn1,inconclusive: 51.2%
13,Cc1ccc(NC(=O)CCC(=O)NNC(=O)c2ccco2)c(C)c1,inconclusive: 68.4%
14,CC(/C=N/NC(=O)c1cc(-c2ccncc2)nc2ccccc12)=C\c1ccco1,inactive: 43.6%
15,O=CN1CCN(C(C(=O)NC2CCCC2)c2ccc(Cl)cc2)CC1 (stereo not drawn),inconclusive: 50.5%
16,O=C(Nc1ccc(Cl)cn1)c1cc2c(s1)-c1ccccc1OC2,inconclusive: 66.2%
17,Cc1ccc(C)c(NC(=S)NNC(=O)c2csc(C)c2)c1,inconclusive: 69.3%
18,COc1ccccc1CNC(=O)C1CCC(CNc2c(N3CCC(C)CC3)c(=O)c2=O)CC1 (stereo not drawn),inconclusive: 83.5%
19,CC(=O)Nc1ccc(S(=O)(=O)Nc2c(NC3CCCCC3)c3ccccc3oc2=O)cc1,inconclusive: 68.5%
20,Cc1nc2ccc(NC(=O)N3CCCCC3)cc2nc1C,inactive: 40.3%
21,CCn1cc(C(=O)O)c(=O)c2cc(F)c(N/N=C/c3ccccc3)cc21,inactive: 6.4%
22,CSc1cc(-c2ccc(Cl)cc2)[nH]c(=O)c1C#N,inconclusive: 60.5%

# 3 structures from above, arranged by formula weight, smallest number first.
row,SMILES,inhibition
5,COc1ccc(CCC(=O)OCC(=O)c2ccc(C)cc2)cc1,inconclusive: 53.8%
16,O=C(Nc1ccc(Cl)cn1)c1cc2c(s1)-c1ccccc1OC2,inconclusive: 66.2%
7,Cc1cc(OC(C)C(=O)NCc2cccnc2)c2c(C)cc(=O)oc2c1 (stereo not drawn),inconclusive: 54.2%

# The results go on:

row,SMILES,inhibition
1,O=C(Nc1ccncc1)c1sc2ccccc2c1Cl,inconclusive: 68.8%
2,O=C(/C=C/c1ccco1)Nc1nc(-c2ccccc2)cs1,inactive: 26.4%
3,CCOc1cc(-c2noc(CCC(=O)NCC3CCCO3)n2)ccc1OC (stereo not drawn),inconclusive: 65.3%
4,CC(=O)c1sc(NC(=O)COc2ccc(Cl)cc2C)nc1C,inconclusive: 60.3%
5,Cc1ccnc(NS(=O)(=O)c2ccc(NC(=O)C3CCCO3)cc2)n1 (stereo not drawn),inactive: -3%
6,O=C(NCc1nnc(SCC(=O)N2CCCc3ccccc32)o1)c1ccco1,inconclusive: 64.7%
7,O=c1oc2ccccc2cc1-c1csc(Nc2nc3c(F)cccc3s2)n1,inconclusive: 56%
8,CCOc1c(Br)cc(/C=C2/SC(=O)N(CC(=O)N3CCCC3)C2=O)cc1OC,inconclusive: 51.2%
9,CCC(CC)c1nnc(NC(=O)C2=NNC(=O)CC2)s1,inconclusive: 56.1%
10,O=[N+]([O-])c1ccc(-c2cnc3ccccc3n2)cc1,inactive: 6.2%
11,CC(C)CC(NC(=O)c1ccccc1)C(=O)N/N=C/c1ccco1 (stereo not drawn),inactive: 3.7%
12,CC(C)CCN(C)C1CCN(S(=O)(=O)c2cccc(C(F)(F)F)c2)CC1,inactive: 12.2%
13,Cc1cc(C(=O)N/N=C/c2c(C)[nH]n(-c3ccccc3)c2=O)n[nH]1,inconclusive: 100%
14,Cc1cc2nc3c(=O)n(CCc4ccccc4)c(=O)[nH]c3nc2cc1N,inactive: 36.3%
15,CCOC(=O)c1ccc2nc(CCC(=O)N[C@H](C(=O)OC)C(C)C)c(=O)n(CC)c2c1,inconclusive: 71.9%
16,CCOC(=O)c1[nH]c(=O)[nH]c1COC(=O)c1cc2ccccc2o1,inconclusive: 50.3%
17,N#Cc1nc(/C=C/c2ccccc2)oc1NCCCN1CCOCC1,inconclusive: 51.1%
18,C=CCn1c(=NC(=O)c2cc(Cl)sc2Cl)sc2cc(S(N)(=O)=O)ccc21,inactive: 27.4%
19,CCOc1ccc2nc(NC(=O)NC3CCCCC3)sc2c1,inconclusive: 63.1%
20,Cc1cc(Nc2ccc(Cl)cc2)n(-c2ccccc2)n1,inconclusive: 66.2%
21,CN(CCC#N)c1ccc(/C=C(\C#N)c2ccccn2)cc1,inconclusive: 62.8%
22,N#Cc1c(N)nc(SCC(=O)C23CC4CC(CC(C4)C2)C3)c(C#N)c1-c1ccc(Cl)cc1,inconclusive: 59.7%

row,SMILES,inhibition
1,CC(C)(C)NC(=O)c1ccc2c(c1)N(CC(=O)N1CCN(c3ccc(F)cc3)CC1)C(=O)C(C)(C)O2,inconclusive: 82%
2,O=C1Nc2ccccc2N2CCCC12 (stereo not drawn),inconclusive: 50.8%
3,O=C(O)c1ccccc1-c1ccccc1C(=O)Nc1ccc2c(c1)[nH]c(=O)c1ccccc12,inconclusive: 82.6%
4,O=C(COC(=O)c1ccc(NS(=O)(=O)c2cccs2)cc1)NCc1ccco1,active: 59.4%
5,COCCCNC(=O)c1ccccc1NS(C)(=O)=O,inconclusive: 63.8%
6,COc1ccc(-n2c(SCC(=O)Nc3ccccc3OC)nc(O)c(Cc3ccccc3)c2=O)cc1,inconclusive: 76.2%
7,O=C(c1cccc2c1-c1ccccc1/C2=N/O)N1CCCCC1,inconclusive: 75.3%
8,COCCn1c(Sc2ccc(C)cc2)nc2c1c(=O)[nH]c(=O)n2C,inconclusive: 52.3%
9,CNC(=O)/C(C#N)=C/c1ccc(-c2ccc(OC)cc2[N+](=O)[O-])o1,inactive: 11.4%
10,CC(CN1CCOCC1)OC(=O)C1COc2ccccc2O1 (stereo not drawn),inconclusive: 57.4%
11,CN(C)/C=N/c1nc2nccc(-c3cccnc3)n2n1,inconclusive: 58.5%
12,CSc1ccccc1C(=O)Nc1cccc(C(C)=O)c1,inconclusive: 60.3%
13,CCOc1ccc(C2/C(=C(\O)c3ccc4c(c3)OCCO4)C(=O)C(=O)N2CCCN2CCOCC2)cc1 (stereo not drawn),inconclusive: 75.6%
14,COc1ccc(Nc2cc(Sc3ccc(OC)cc3)ncn2)cc1,inconclusive: 67.8%
15,O=C(Nc1nc2c(cc3c4c(cccc42)CC3)s1)c1ccccc1Cl,inconclusive: 55.1%
16,COc1ccc(C(=O)NC(=S)Nc2ccc(Cl)c(C(=O)O)c2)cc1,inconclusive: 56.2%
17,COc1ccc(S(=O)(=O)N2CCOCC2)cc1OC,inconclusive: 75.6%
18,CCOc1ccc(NC(=O)C(NC(=O)C2CCC(C)CC2)C(C)C)cc1 (stereo not drawn),inconclusive: 81.6%
19,CCC1=NN2C(=N)/C(=C\c3ccc(OCCOc4ccccc4)c(OC)c3)C(=O)N=C2S1,inconclusive: 52.7%
20,CC1(C)Cc2nc3sc4c(SCC(=O)NC(c5ccccc5)c5ccccc5)ncnc4c3cc2CO1,inconclusive: 56.3%
21,CCOC(=O)c1c(NC(=O)CSc2nnnn2-c2ccc(OC)cc2)sc(C)c1C,inconclusive: 60%
22,CC1CC(C)CN(C(=O)c2ccc3c(c2NCCO)C(=O)c2ccccc2C3=O)C1 (stereo not drawn),active: 59%

row,SMILES,inhibition
1,Cc1cc(C)c2c(=O)n(CC(=O)Nc3ccc(Cl)cc3)sc2n1,inactive: 23.2%
2,COc1cccc(C(=O)Nc2ccc3c(c2)C(=O)NC3=O)c1,inactive: 11.6%
3,C=CCn1cc(C(=O)NCc2cccnc2)c(=O)c2cc(S(=O)(=O)N(CC)CC)ccc21,inconclusive: 66.8%
4,CN1C(=O)C(O)(c2nnc(-c3ccccc3)o2)c2ccccc21 (stereo not drawn),inconclusive: 55.5%
5,Cc1c(NC(=O)CN2C(=O)C(=O)c3ccccc32)c(=O)n(-c2ccccc2)n1C,inconclusive: 70.3%
6,Cc1cc(C)c2c(CN3CCN(Cc4ccccc4)CC3)cc(=O)oc2c1C,inconclusive: 50.7%
7,NC(=O)c1cc(S(=O)(=O)Nc2cccc(Cl)c2)cs1,inconclusive: 58.5%
8,CC(=O)Oc1cc(O)c2c(c1)OC(c1ccc(OC(C)=O)c(OC(C)=O)c1)C(OC(C)=O)C2=O (stereo not drawn),inactive: 8.9%
9,N#C/C(=C(\O)c1ccco1)c1ccccn1,inconclusive: 57%
10,CCOC(=O)N1CCN(S(=O)(=O)c2cc(Br)cc3c2N(C(C)=O)C(C)C3)CC1 (stereo not drawn),inconclusive: 53.9%
11,Cc1ccc(S(=O)(=O)N(C)CCCC(=O)Nc2ccc(C)cc2C)cc1,inconclusive: 68.4%
12,N#CCn1c(C2CCCCC2)nc2ccccc2c1=O,inconclusive: 70.4%
13,CCOC(=O)c1c(NC(C)=O)sc2c(OC)cccc12,inconclusive: 57.5%
14,Cc1nn(CC(=O)N2CCC(N3CCCCC3)CC2)c(=O)c2c1sc1ccccc12,inactive: 16.1%
15,O=C(C[n+]1cc(-c2ccc(F)cc2)n2c1CCC2)OCc1ccccc1,inconclusive: 70.2%
16,Nc1nc(-c2ccc3c(c2)CCCC3)c(CC(=O)O)s1,inconclusive: 53.4%
17,O=c1oc2c(CN3CCCCC3)c(O)ccc2c2c1CCCCC2,inconclusive: 50.6%
18,CN1C(=O)C2(c3ccccc31)c1c(oc3ccccc3c1=O)C(=O)N2CCO (stereo not drawn),inconclusive: 56.7%
19,O=C(NCc1ccccc1)c1cccc(S(=O)(=O)N2CCOCC2)c1,inconclusive: 66.6%
20,O=C(N=Nc1c(O)[nH]c2ccccc12)c1cc(-c2cccs2)[nH]n1,inconclusive: 66.3%
21,COc1ccc(-n2c(COc3cccc(C)c3)nnc2SCC(=O)NCc2ccco2)cc1,inconclusive: 52.6%
22,O=C(NCC1CCOCC1)C1CCC(=O)N(Cc2cccc(C(F)(F)F)c2)C1 (stereo not drawn),inconclusive: 53.7%

# Of the compounds above, these have a CF3 group:
row,SMILES,inhibition
12,CC(C)CCN(C)C1CCN(S(=O)(=O)c2cccc(C(F)(F)F)c2)CC1,inactive: 12.2%
22,O=C(NCC1CCOCC1)C1CCC(=O)N(Cc2cccc(C(F)(F)F)c2)C1 (stereo not drawn),inconclusive: 53.7%
